In the experiment the test system is P388 leukemia ip, CD2F1 mice, survival T/C. Description: NCI In Vivo Anticancer Drug Screen. Data for tumor model P388 Leukemia (intraperitoneal) in CD2F1 (CDF1) mice. Particulars: T/C endpoint: median survival time, higher T/C = longer survival.
The mark [1] stands for this setting: dose: 6.0 mg/kg/injection, schedule: Q01DX009 (ip), vehicle: Klucel (hydroxypropylcellulose) (HPC).
Where [2] appears, read: dose: 200.0 mg/kg/injection, schedule: Q01DX005 (ip), vehicle: saline with Tween-80.

The list does not hold the whole screen: it is rich in T/C values a quarter to a half above the control, in often repeated tests (any T/C) and in doses without a T/C. Further doses and runs are listed elsewhere. T/C is the treated group as % of the vehicle group. Some doses have a count of surviving animals in place of a T/C: the source holds a T/C of zero for them, seemingly a mark for toxic or unscored doses. Some doses without a T/C left all or most animals alive at the check, yet need not have been tolerated: the source hardly ever lists a survival T/C far under the control, and the zero likely stands for such cases as well. Counts of survivors are from the toxicity check (mostly the fifth day) where no day follows; animals may have died later. Schedule codes are those of the source, taken here to give the interval after Q, in days (D) or hours (H), and the number of doses after X. Some entries were tested several times; their values stand side by side, smallest first. Where survival is the endpoint, the PubChem record calls one and a half times the control and up active, and a quarter to a half above the control has no call in these data; cut-offs in other NCI protocols can differ. Some T/C values are followed by the survivors on the day toxicity was checked, most often the fifth; where none is given, no animal had died by that day. Brackets with × say how often a value occurs here.

Turning to `COc1cc(C)c2nc3c(C)c(Cl)ccc3c(Cl)c2c1`, the survivor count runs as follows: (dose: 12.5 mg/kg/injection, schedule: Q01DX005 (ip), vehicle: Klucel + Tween-80) 6 of 6; (dose: 25.0 mg/kg/injection, schedule: Q01DX005 (ip), vehicle: Klucel + Tween-80) 6 of 6; (dose: 50.0 mg/kg/injection, schedule: Q01DX005 (ip), vehicle: Klucel + Tween-80) 6 of 6; (dose: 100.0 mg/kg/injection, schedule: Q01DX005 (ip), vehicle: Klucel + Tween-80) 6 of 6; (dose: 200.0 mg/kg/injection, schedule: Q01DX005 (ip), vehicle: Klucel + Tween-80) 6 of 6.

For the molecule `Cc1nc2c([N+](=O)[O-])cc(Cl)cc2[nH]1`, for the setting “dose: 240.0 mg/kg/injection, schedule: Q01DX005 (ip), vehicle: Klucel (hydroxypropylcellulose) (HPC)”, the survivor count is reported as 4 of 6.

In the case of `S=C(Nc1ccc(Cl)c(Cl)c1)SCc1ccc2c(c1)OCO2`, the T/C (dose: 50.0 mg/kg/injection, schedule: Q01DX009 (ip), vehicle: Klucel (hydroxypropylcellulose) (HPC)) is 127 % of control. Also, the survivor count by setting is: (dose: 200.0 mg/kg/injection, schedule: Q01DX009 (ip), vehicle: Klucel (hydroxypropylcellulose) (HPC)) 6 of 6; (dose: 400.0 mg/kg/injection, schedule: Q01DX009 (ip), vehicle: Klucel (hydroxypropylcellulose) (HPC)) 3 of 6.

For the molecule `Brc1ccccc1C(Nc1nncs1)Nc1nncs1`, the T/C by setting is: (dose: 120.0 mg/kg/injection, schedule: Q01DX005 (ip), vehicle: saline with Tween-80, evaluated on day 20) 136 % of control; (dose: 120.0 mg/kg/injection, schedule: Q01DX005 (ip), vehicle: saline with Tween-80, evaluated on day 30) 132 % of control.

Regarding `CCc1c2cc3c(cc2cc2c4cc5c(cc4cc[n+]12)OCO5)OCO3` (tested in a mixture with another compound), the T/C (dose: 1.5 mg/kg/injection, schedule: Q01DX009 (ip), vehicle: Klucel (hydroxypropylcellulose) (HPC)) was 138 and 140 % of control; the T/C (dose: 2.0 mg/kg/injection, schedule: Q01DX009 (ip), vehicle: Klucel (hydroxypropylcellulose) (HPC)) is on record as 126, 128, 140 % of control; the T/C (dose: 3.0 mg/kg/injection, schedule: Q01DX009 (ip), vehicle: Klucel (hydroxypropylcellulose) (HPC)) is 135, 138, 140 [5 of 6 alive], 148 % of control; the T/C (dose: 4.0 mg/kg/injection, schedule: Q01DX009 (ip), vehicle: Klucel (hydroxypropylcellulose) (HPC)) was 135 and 148 % of control (2×); the T/C (dose: 5.0 mg/kg/injection, schedule: Q01DX009 (ip), vehicle: Klucel (hydroxypropylcellulose) (HPC)) was 148 % of control; the T/C under setting [1] was 148 % of control. Moreover, the survivor count was 3 of 6 and 6 of 6 under setting [1]; 0 of 6 (dose: 10.0 mg/kg/injection, schedule: Q01DX009 (ip), vehicle: Klucel (hydroxypropylcellulose) (HPC)); 0 of 6 (dose: 12.0 mg/kg/injection, schedule: Q01DX009 (ip), vehicle: Klucel (hydroxypropylcellulose) (HPC)); 0 of 6 (dose: 15.0 mg/kg/injection, schedule: Q01DX009 (ip), vehicle: Klucel (hydroxypropylcellulose) (HPC)); 0 of 6 (dose: 20.0 mg/kg/injection, schedule: Q01DX009 (ip), vehicle: Klucel (hydroxypropylcellulose) (HPC)); 0 of 6 (dose: 30.0 mg/kg/injection, schedule: Q01DX009 (ip), vehicle: Klucel (hydroxypropylcellulose) (HPC)). The survivor count (dose: 40.0 mg/kg/injection, schedule: Q01DX009 (ip), vehicle: Klucel (hydroxypropylcellulose) (HPC)) was 0 of 6.

With `CS(=O)(=O)c1nnc(-c2cc[n+]([O-])cc2)s1`, the survivor count is, setting by setting: (dose: 25.0 mg/kg/injection, schedule: Q01DX005 (ip), vehicle: Klucel (hydroxypropylcellulose) (HPC)) 2 of 6; (dose: 50.0 mg/kg/injection, schedule: Q01DX005 (ip), vehicle: Klucel (hydroxypropylcellulose) (HPC)) 0 of 6; (dose: 100.0 mg/kg/injection, schedule: Q01DX005 (ip), vehicle: Klucel (hydroxypropylcellulose) (HPC)) 0 of 6; (dose: 200.0 mg/kg/injection, schedule: Q01DX005 (ip), vehicle: Klucel (hydroxypropylcellulose) (HPC)) 0 of 6.

Turning to `COC(=O)C1=C(C(=O)OC)C2CC3C4CC=C5CC(OC(C)=O)CCC5(C)C4CCC3(C)C2=C(OC(C)=O)C1` (stereo not drawn), the survivor count under setting [2] is 6 of 6.

For the molecule `C(=NCCCN=CC1CCCC[N-]1)C1CCCC[N-]1.[Cu+2].[O-][Cl+3]([O-])([O-])O` (stereo not drawn), the survivor count by setting is: (dose: 25.0 mg/kg/injection, schedule: Q01DX009 (ip), vehicle: saline with Tween-80) 2 of 6; (dose: 50.0 mg/kg/injection, schedule: Q01DX009 (ip), vehicle: saline with Tween-80) 0 of 6; (dose: 100.0 mg/kg/injection, schedule: Q01DX009 (ip), vehicle: saline with Tween-80) 0 of 6; (dose: 200.0 mg/kg/injection, schedule: Q01DX009 (ip), vehicle: saline with Tween-80) 0 of 6.

On to `O=NN(CCCl)C(=O)NC1CCC(=O)NC1=O` (stereo not drawn), for which the T/C runs as follows: (dose: 4.0 mg/kg/injection, schedule: Q01DX001 (iv), vehicle: saline + alcohol) 136 % of control; (dose: 8.0 mg/kg/injection, schedule: Q01DX001 (oral), vehicle: saline + alcohol) 146 % of control; (dose: 8.0 mg/kg/injection, schedule: Q01DX005 (ip), vehicle: saline + alcohol) 135 % of control; (dose: 16.0 mg/kg/injection, schedule: Q01DX005 (iv), vehicle: saline + alcohol) 146 % of control. Further, the survivor count by setting is: (dose: 12.5 mg/kg/injection, schedule: Q01DX009 (ip), vehicle: saline with Tween-80) 6 of 6; (dose: 16.0 mg/kg/injection, schedule: Q01DX005 (ip), vehicle: saline + alcohol) 5 of 6; (dose: 20.0 mg/kg/injection, schedule: Q01DX001 (ip), vehicle: saline with Tween-80) 9 of 10; (dose: 25.0 mg/kg/injection, schedule: Q04DX003 (ip), vehicle: saline with Tween-80) 6 of 6; (dose: 32.0 mg/kg/injection, schedule: Q01DX001 (ip), vehicle: saline + alcohol) 5 of 6; (dose: 32.0 mg/kg/injection, schedule: Q01DX001 (iv), vehicle: saline + alcohol) 6 of 6. Moreover, the survivor count is, setting by setting: (dose: 32.0 mg/kg/injection, schedule: Q01DX001 (oral), vehicle: saline + alcohol) 6 of 6; (dose: 32.0 mg/kg/injection, schedule: Q01DX005 (ip), vehicle: saline + alcohol) 6 of 6; (dose: 32.0 mg/kg/injection, schedule: Q01DX005 (iv), vehicle: saline + alcohol) 5 of 6; (dose: 32.0 mg/kg/injection, schedule: Q01DX005 (oral), vehicle: saline + alcohol) 6 of 6; (dose: 35.0 mg/kg/injection, schedule: Q01DX001 (ip), vehicle: saline with Tween-80) 5 of 10; (dose: 50.0 mg/kg/injection, schedule: Q04DX003 (ip), vehicle: saline with Tween-80) 5 of 6. Moreover, the survivor count is, setting by setting: (dose: 64.0 mg/kg/injection, schedule: Q01DX001 (ip), vehicle: saline + alcohol) 6 of 6; (dose: 64.0 mg/kg/injection, schedule: Q01DX001 (iv), vehicle: saline + alcohol) 5 of 6; (dose: 64.0 mg/kg/injection, schedule: Q01DX001 (oral), vehicle: saline + alcohol) 5 of 6; (dose: 64.0 mg/kg/injection, schedule: Q01DX005 (oral), vehicle: saline + alcohol) 6 of 6; (dose: 128.0 mg/kg/injection, schedule: Q01DX001 (oral), vehicle: saline + alcohol) 3 of 6.

For the molecule `C/C(=N\NC(=S)N1CCC(N2CCCCC2)CC1)c1ccccn1`, the survivor count is, setting by setting: (dose: 25.0 mg/kg/injection, schedule: Q01DX005 (ip), vehicle: saline with Tween-80) 3 of 6; (dose: 50.0 mg/kg/injection, schedule: Q01DX005 (ip), vehicle: saline with Tween-80) 0 of 6; (dose: 100.0 mg/kg/injection, schedule: Q01DX005 (ip), vehicle: saline with Tween-80) 0 of 6; under setting [2], 0 of 6.

For the origin of these results see PubChem BioAssay AID330 (DTP/NCI, 2004).
